Results taken from PMC8481254.
These are yes or no findings as the source states them, for the method shown. Binding seen in cells or lysates may run through a third protein. Some binding calls cover weakened binding; strength is not graded here. Tags and fused reporters may be left off the sequences shown.

Amino acid sequences for entries named in this document (tags omitted).
UniProt P46937: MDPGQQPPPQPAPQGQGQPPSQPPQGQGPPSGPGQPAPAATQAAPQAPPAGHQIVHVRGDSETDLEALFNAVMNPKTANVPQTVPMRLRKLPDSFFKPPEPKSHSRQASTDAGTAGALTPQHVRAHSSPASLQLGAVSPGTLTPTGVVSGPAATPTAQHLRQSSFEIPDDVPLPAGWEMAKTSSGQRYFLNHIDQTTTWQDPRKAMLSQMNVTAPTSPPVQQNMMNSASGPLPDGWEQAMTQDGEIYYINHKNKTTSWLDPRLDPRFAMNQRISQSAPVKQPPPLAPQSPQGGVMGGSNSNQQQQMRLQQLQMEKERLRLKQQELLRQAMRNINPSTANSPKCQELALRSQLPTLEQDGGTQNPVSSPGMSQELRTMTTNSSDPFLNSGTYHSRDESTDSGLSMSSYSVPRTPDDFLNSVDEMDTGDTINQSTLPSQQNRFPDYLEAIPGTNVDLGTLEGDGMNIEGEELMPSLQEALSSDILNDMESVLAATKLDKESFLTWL

T1: O-linked N-acetylglucosamine (GlcNAc) transferase (UniProt O15294)
T1 sequence: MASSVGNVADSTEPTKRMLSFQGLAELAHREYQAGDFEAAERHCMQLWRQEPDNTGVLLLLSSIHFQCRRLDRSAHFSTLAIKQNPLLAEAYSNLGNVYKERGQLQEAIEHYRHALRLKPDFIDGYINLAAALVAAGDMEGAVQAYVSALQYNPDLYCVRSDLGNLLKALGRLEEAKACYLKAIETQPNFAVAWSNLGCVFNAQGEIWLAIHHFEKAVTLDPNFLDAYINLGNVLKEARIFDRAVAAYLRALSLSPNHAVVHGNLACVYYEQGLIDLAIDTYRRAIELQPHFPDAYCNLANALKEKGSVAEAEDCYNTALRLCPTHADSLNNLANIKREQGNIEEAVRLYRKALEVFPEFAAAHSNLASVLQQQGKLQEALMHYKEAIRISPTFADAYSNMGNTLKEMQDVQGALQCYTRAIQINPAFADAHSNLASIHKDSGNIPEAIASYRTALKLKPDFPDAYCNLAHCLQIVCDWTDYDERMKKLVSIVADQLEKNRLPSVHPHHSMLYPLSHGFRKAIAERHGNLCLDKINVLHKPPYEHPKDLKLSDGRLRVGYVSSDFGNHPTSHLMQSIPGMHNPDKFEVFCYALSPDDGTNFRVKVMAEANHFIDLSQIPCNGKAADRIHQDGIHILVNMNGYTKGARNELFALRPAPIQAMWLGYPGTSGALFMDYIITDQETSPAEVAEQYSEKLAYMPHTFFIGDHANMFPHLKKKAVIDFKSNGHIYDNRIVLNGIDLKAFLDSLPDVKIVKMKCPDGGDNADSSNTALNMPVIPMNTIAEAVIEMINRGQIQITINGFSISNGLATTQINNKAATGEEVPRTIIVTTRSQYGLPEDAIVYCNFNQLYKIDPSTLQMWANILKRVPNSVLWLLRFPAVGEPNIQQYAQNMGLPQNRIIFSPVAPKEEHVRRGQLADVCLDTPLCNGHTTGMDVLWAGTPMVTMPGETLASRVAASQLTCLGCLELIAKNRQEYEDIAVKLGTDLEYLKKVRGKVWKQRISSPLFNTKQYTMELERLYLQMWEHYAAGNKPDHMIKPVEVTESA

B1: O-linked N-acetylglucosamine (GlcNAc) transferase (enzyme, UniProt O15294 1-1046)
chain: T1 sequence

How the values were obtained:
[1] = target: T1, O-linked N-acetylglucosamine (GlcNAc) transferase; assay: co-IP; reciprocal co-immunoprecipitation: IP with anti-YAP antibodies, OGT detected, and vice versa; cells not told
Yes-associated protein = Yes-associated protein (UniProt P46937); assay: as above

| binding [1] | binding (Yes-associated protein) | Molecule |
| --- | --- | --- |
| binds | – | Yes-associated protein (from UniProt P46937 1-504) |
| – | binds | B1 |
